Values from PubChem BioAssay AID1224829 (NIAID, 2016)
Screen: 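Genes needed for LPS-driven NF-kappaB p65 nuclear entry in mouse macrophages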 (follow-up of hits). Cell system: mouse RAW264.7 G9 macrophage reporter cells. Reagents: single siRNA against mouse genes, 100 nM. Time to read-out: 2 days of siRNA knock-down, then 40 min of LPS before fixing. Conditions: LPS (Salmonella minnesota R595) at 10 ng/ml. Detection: 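High-content images after 40 min LPS exposure; GFP-p65 nucleus to surrounding ring signal ratio, normalised to plate median and non-targeting control wells, expressed as z-score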. Scale: p65 translocation z-score and gene median z-score, per vendor: higher = more nuclear NF-kappaB p65 after LPS. Rule for the call: 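Active means the replicate-mean z-score lies beyond plus or minus 2, in either direction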. Calls: active = changed p65 translocation (either direction); inactive = no clear change.
In all, the deposit lists about 3,800 reagents; below is a part drawn at random. 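Calls cover raised and lowered translocation; gene median uses one vendor's three siRNAs; qiagen siRNAs acted more weakly than ambion siRNAs.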 A number with no mark means an inactive call. The numbers tell different reagents against one gene apart. Reagent sequences are not shown.

| p65 translocation z-score, replicate mean | p65 translocation z-score, replicate 1 | p65 translocation z-score, replicate 2 | gene median z-score, per vendor | Target gene | siRNA no. | siRNA vendor or control pool |
| --- | --- | --- | --- | --- | --- | --- |
| -4.29 (active) | -5.35 | -3.22 | -4.8 | 2410018L13Rik | 1 | ambion single siRNA |
| -5.19 (active) | -5.96 | -4.42 | -4.8 | 2410018L13Rik | 2 | ambion single siRNA |
| -2.95 (active) | -0.72 | -5.18 | -4.8 | 2410018L13Rik | 3 | ambion single siRNA |
| 1.12 | 1.68 | 0.571 | 0.571 | 2410018L13Rik | 4 | qiagen single siRNA |
| -4.27 (active) | -4.27 | – | 0.571 | 2410018L13Rik | 5 | qiagen single siRNA |
| -0.0553 | -1.03 | 0.918 | 0.571 | 2410018L13Rik | 6 | qiagen single siRNA |
| -3.78 (active) | -4.34 | -3.23 | -3.58 | Ccr2 | 1 | ambion single siRNA |
| -4.55 (active) | -3.92 | -5.17 | -3.58 | Ccr2 | 2 | ambion single siRNA |
| -1.36 | -1.84 | -0.883 | -3.58 | Ccr2 | 3 | ambion single siRNA |
| -1.85 | -2.17 | -1.53 | -1.85 | Ccr2 | 4 | qiagen single siRNA |
| -1.85 | -1.46 | -2.25 | -1.85 | Ccr2 | 5 | qiagen single siRNA |
| -1.64 | -0.872 | -2.4 | -1.85 | Ccr2 | 6 | qiagen single siRNA |
| -3.57 (active) | -3.57 | – | -3.57 | Hmga1 | 1 | ambion single siRNA |
| 0.821 | 1.24 | 0.399 | -3.57 | Hmga1 | 2 | ambion single siRNA |
| -4.36 (active) | -4.89 | -3.84 | -3.57 | Hmga1 | 3 | ambion single siRNA |
| -1.65 | -1.14 | -2.16 | 1.39 | Hmga1 | 4 | qiagen single siRNA |
| 2.84 (active) | 2.19 | 3.48 | 1.39 | Hmga1 | 5 | qiagen single siRNA |
| 1.94 | 0.593 | 3.28 | 1.39 | Hmga1 | 6 | qiagen single siRNA |
| -0.851 | -0.593 | -1.11 | -4.15 | Klk1 | 1 | ambion single siRNA |
| -7.61 (active) | -8.46 | -6.76 | -4.15 | Klk1 | 2 | ambion single siRNA |
| -4.15 (active) | -4.61 | -3.7 | -4.15 | Klk1 | 3 | ambion single siRNA |
| 0.202 | 0.412 | -0.00754 | 0.135 | Klk1 | 4 | qiagen single siRNA |
| 0.484 | 0.691 | 0.277 | 0.135 | Klk1 | 5 | qiagen single siRNA |
| -4.93 (active) | -3.53 | -6.32 | 0.135 | Klk1 | 6 | qiagen single siRNA |
| 1.95 | 2.59 | 1.3 | 0.599 | Nav1 | 1 | ambion single siRNA |
| 0.599 | 1.19 | 0.00955 | 0.599 | Nav1 | 2 | ambion single siRNA |
| -3.83 (active) | -2.73 | -4.94 | 0.599 | Nav1 | 3 | ambion single siRNA |
| 2.22 (active) | 2.33 | 2.11 | -0.509 | Nav1 | 4 | qiagen single siRNA |
| -0.925 | -0.168 | -1.68 | -0.509 | Nav1 | 5 | qiagen single siRNA |
| -2.2 (active) | -0.85 | -3.55 | -0.509 | Nav1 | 6 | qiagen single siRNA |

Next part; the last 7 above are carried over.
| p65 translocation z-score, replicate mean | p65 translocation z-score, replicate 1 | p65 translocation z-score, replicate 2 | gene median z-score, per vendor | Target gene | siRNA no. | siRNA vendor or control pool |
| --- | --- | --- | --- | --- | --- | --- |
| -4.93 (active) | -3.53 | -6.32 | 0.135 | Klk1 | 6 | qiagen single siRNA |
| 1.95 | 2.59 | 1.3 | 0.599 | Nav1 | 1 | ambion single siRNA |
| 0.599 | 1.19 | 0.00955 | 0.599 | Nav1 | 2 | ambion single siRNA |
| -3.83 (active) | -2.73 | -4.94 | 0.599 | Nav1 | 3 | ambion single siRNA |
| 2.22 (active) | 2.33 | 2.11 | -0.509 | Nav1 | 4 | qiagen single siRNA |
| -0.925 | -0.168 | -1.68 | -0.509 | Nav1 | 5 | qiagen single siRNA |
| -2.2 (active) | -0.85 | -3.55 | -0.509 | Nav1 | 6 | qiagen single siRNA |
| -1.16 | -0.911 | -1.4 | -0.301 | Mthfsd | 1 | ambion single siRNA |
| -0.121 | -0.951 | 0.71 | -0.301 | Mthfsd | 2 | ambion single siRNA |
| 0.605 | 0.308 | 0.902 | -0.301 | Mthfsd | 3 | ambion single siRNA |
| -2.56 (active) | -1.01 | -4.11 | 0.0133 | Mthfsd | 4 | qiagen single siRNA |
| 1.23 | 0.577 | 1.89 | 0.0133 | Mthfsd | 5 | qiagen single siRNA |
| 0.0133 | -0.243 | 0.269 | 0.0133 | Mthfsd | 6 | qiagen single siRNA |
| -0.473 | 0.729 | -1.68 | 0.639 | Gsta3 | 1 | ambion single siRNA |
| – | – | – | 0.639 | Gsta3 | 2 | ambion single siRNA |
| 2.09 (active) | 3.63 | 0.548 | 0.639 | Gsta3 | 3 | ambion single siRNA |
| 0.339 | 0.0358 | 0.643 | 0.203 | Gsta3 | 4 | qiagen single siRNA |
| 0.308 | -0.053 | 0.669 | 0.203 | Gsta3 | 5 | qiagen single siRNA |
| 0.0936 | -0.183 | 0.371 | 0.203 | Gsta3 | 6 | qiagen single siRNA |
| -0.48 | -0.386 | -0.573 | -2.93 | Cldn6 | 1 | ambion single siRNA |
| -3.39 (active) | -2.93 | -3.84 | -2.93 | Cldn6 | 2 | ambion single siRNA |
| -2.98 (active) | -2.98 | – | -2.93 | Cldn6 | 3 | ambion single siRNA |
| 1.44 | 1.83 | 1.04 | -1.25 | Cldn6 | 4 | qiagen single siRNA |
| -1.43 | -1.25 | -1.6 | -1.25 | Cldn6 | 5 | qiagen single siRNA |
| -2.42 (active) | -2.42 | – | -1.25 | Cldn6 | 6 | qiagen single siRNA |
| -2.91 (active) | -1.77 | -4.06 | -0.949 | Naa50 | 1 | ambion single siRNA |
| -0.949 | -0.949 | – | -0.949 | Naa50 | 2 | ambion single siRNA |
| 2.22 (active) | 3.35 | 1.09 | -0.949 | Naa50 | 3 | ambion single siRNA |
| 0.436 | 0.483 | 0.388 | 0.0438 | Naa50 | 4 | qiagen single siRNA |
| -2.26 (active) | 0.0438 | -4.56 | 0.0438 | Naa50 | 5 | qiagen single siRNA |
| -1.92 | -1.92 | – | 0.0438 | Naa50 | 6 | qiagen single siRNA |
